± gives the standard deviation of the averaged measurements. The entries are a selection whose mix differs from that of the whole data set.

Amino acid sequences for entries named in this document (tags omitted). A change or cut given only in a name is not applied to a line headed by its entry.
UniProt Q86UK7: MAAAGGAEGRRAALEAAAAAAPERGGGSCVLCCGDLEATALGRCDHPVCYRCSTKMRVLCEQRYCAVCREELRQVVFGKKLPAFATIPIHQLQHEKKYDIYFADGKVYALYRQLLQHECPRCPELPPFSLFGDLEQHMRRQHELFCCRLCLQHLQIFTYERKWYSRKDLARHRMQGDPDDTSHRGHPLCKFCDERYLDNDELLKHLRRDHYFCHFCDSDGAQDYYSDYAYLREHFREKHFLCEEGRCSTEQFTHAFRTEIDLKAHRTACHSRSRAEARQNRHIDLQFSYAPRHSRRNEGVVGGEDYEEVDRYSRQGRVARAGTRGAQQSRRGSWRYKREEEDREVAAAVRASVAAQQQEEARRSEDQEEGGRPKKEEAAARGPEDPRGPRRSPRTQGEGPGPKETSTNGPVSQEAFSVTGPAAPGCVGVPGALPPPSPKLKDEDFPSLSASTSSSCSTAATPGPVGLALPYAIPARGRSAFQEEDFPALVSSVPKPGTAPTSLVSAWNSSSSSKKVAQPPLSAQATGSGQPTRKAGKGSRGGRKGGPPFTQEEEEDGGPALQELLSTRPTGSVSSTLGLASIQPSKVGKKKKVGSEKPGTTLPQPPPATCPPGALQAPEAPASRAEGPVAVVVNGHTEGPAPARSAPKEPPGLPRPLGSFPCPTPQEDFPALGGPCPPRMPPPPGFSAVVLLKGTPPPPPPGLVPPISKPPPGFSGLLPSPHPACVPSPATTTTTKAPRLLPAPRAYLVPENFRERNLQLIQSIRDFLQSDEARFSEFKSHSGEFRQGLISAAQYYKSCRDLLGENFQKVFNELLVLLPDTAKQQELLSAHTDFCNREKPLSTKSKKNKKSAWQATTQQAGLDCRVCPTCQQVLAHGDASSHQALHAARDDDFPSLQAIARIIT
UniProt Q8N0V3: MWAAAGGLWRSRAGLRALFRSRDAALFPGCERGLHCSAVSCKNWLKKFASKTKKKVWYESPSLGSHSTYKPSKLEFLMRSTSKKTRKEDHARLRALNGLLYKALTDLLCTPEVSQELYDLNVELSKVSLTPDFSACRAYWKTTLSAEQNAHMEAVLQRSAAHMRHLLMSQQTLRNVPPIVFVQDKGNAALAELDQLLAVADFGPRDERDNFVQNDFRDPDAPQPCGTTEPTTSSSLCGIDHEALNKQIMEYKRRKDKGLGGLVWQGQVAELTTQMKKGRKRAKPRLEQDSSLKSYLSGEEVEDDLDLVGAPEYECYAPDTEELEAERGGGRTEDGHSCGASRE
UniProt Q8IXQ3: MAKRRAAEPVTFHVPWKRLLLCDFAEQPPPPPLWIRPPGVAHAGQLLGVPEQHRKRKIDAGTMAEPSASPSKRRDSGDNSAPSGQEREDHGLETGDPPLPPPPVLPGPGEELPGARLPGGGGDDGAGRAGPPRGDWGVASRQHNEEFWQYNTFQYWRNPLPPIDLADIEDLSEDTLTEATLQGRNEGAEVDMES
UniProt Q8N371: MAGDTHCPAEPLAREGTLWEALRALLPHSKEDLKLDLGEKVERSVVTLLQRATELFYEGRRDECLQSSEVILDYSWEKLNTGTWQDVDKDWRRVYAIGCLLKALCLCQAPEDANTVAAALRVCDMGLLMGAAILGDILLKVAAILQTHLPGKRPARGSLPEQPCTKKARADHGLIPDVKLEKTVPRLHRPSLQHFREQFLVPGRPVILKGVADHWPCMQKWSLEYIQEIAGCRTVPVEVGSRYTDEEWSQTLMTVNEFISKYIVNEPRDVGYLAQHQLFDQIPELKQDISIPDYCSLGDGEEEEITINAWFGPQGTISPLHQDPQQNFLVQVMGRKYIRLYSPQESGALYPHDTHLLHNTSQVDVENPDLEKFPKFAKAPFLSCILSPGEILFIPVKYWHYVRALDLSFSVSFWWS
UniProt Q8NAV1: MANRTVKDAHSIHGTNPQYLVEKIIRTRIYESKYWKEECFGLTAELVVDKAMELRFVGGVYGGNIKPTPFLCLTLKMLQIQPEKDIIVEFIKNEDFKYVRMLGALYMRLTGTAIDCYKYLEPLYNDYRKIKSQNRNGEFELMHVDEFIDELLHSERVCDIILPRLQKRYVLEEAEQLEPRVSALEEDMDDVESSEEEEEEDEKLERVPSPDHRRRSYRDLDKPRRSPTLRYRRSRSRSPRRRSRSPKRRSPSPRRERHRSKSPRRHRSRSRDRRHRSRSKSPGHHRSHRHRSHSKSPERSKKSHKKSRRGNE
UniProt Q86U90: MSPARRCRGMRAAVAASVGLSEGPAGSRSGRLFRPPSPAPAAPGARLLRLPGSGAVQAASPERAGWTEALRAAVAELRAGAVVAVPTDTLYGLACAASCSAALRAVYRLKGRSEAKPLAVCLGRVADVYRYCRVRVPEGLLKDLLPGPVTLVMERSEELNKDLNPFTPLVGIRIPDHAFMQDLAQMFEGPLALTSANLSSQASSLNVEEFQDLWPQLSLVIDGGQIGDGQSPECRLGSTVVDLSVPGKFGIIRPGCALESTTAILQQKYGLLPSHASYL
UniProt Q7Z7A4: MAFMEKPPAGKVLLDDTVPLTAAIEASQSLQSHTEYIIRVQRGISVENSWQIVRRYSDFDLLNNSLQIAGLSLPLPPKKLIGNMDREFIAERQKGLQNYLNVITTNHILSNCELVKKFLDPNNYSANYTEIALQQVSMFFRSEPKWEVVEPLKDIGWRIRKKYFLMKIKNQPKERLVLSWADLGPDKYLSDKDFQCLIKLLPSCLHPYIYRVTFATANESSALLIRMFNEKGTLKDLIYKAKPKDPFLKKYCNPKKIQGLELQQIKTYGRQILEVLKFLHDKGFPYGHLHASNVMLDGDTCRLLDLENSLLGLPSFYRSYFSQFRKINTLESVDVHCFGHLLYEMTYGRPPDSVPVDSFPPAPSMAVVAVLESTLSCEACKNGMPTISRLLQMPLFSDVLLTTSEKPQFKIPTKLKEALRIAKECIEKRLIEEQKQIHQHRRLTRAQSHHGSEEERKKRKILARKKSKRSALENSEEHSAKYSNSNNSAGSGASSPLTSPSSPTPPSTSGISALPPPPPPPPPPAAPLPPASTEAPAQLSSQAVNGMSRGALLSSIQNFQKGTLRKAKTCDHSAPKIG
UniProt Q86X83, whole entry: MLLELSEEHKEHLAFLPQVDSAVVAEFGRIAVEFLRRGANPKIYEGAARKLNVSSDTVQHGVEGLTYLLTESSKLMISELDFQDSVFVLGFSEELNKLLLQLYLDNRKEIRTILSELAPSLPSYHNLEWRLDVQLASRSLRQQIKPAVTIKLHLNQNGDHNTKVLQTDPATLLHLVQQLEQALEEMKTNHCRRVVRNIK
UniProt Q8IVW6: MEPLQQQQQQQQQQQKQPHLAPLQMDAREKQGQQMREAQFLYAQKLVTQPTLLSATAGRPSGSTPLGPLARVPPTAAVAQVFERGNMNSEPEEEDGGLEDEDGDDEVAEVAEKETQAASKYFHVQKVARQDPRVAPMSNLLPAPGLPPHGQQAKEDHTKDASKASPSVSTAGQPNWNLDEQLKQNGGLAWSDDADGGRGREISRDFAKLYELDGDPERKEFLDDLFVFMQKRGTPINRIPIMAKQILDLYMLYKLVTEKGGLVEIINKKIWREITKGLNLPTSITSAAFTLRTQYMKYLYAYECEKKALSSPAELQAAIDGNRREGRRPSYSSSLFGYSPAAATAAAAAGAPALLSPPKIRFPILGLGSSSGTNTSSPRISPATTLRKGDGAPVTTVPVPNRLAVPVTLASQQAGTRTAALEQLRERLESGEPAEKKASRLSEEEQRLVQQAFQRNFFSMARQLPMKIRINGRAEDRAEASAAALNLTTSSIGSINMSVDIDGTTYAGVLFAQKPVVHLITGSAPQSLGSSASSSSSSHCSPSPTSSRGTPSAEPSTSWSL
UniProt Q7Z7E8: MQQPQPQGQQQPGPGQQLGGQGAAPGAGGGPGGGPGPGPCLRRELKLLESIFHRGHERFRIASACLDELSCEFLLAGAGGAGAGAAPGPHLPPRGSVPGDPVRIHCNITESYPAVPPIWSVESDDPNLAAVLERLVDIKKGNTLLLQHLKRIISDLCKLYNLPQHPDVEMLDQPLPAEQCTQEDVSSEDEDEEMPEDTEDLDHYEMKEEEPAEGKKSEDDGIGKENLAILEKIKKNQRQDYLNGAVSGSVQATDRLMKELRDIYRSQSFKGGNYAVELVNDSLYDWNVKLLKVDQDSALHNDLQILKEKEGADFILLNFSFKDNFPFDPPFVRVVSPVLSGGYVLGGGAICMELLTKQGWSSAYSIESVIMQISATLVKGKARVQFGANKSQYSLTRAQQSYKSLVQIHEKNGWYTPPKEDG
UniProt Q86U38: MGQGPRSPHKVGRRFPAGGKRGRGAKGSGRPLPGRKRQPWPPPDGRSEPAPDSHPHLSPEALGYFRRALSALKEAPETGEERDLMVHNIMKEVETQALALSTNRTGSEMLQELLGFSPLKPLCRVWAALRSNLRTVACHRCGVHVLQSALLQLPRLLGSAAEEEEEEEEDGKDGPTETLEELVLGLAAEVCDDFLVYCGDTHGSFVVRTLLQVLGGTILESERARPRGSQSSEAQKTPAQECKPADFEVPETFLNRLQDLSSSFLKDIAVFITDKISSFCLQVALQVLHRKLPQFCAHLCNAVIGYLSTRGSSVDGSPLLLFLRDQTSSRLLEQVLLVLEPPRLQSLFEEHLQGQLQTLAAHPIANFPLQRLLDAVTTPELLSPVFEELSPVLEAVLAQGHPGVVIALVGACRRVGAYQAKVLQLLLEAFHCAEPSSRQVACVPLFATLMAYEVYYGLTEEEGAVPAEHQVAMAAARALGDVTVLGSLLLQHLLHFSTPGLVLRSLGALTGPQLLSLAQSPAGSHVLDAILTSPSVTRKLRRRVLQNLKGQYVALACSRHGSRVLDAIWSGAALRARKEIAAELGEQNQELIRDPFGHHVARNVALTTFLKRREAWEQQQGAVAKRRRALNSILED
UniProt Q86SX6: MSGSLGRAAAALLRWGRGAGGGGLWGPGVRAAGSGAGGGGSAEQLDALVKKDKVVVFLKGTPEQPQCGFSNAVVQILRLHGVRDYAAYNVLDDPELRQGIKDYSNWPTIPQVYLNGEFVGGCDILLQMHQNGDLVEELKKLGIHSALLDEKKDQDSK
UniProt Q8IZL8: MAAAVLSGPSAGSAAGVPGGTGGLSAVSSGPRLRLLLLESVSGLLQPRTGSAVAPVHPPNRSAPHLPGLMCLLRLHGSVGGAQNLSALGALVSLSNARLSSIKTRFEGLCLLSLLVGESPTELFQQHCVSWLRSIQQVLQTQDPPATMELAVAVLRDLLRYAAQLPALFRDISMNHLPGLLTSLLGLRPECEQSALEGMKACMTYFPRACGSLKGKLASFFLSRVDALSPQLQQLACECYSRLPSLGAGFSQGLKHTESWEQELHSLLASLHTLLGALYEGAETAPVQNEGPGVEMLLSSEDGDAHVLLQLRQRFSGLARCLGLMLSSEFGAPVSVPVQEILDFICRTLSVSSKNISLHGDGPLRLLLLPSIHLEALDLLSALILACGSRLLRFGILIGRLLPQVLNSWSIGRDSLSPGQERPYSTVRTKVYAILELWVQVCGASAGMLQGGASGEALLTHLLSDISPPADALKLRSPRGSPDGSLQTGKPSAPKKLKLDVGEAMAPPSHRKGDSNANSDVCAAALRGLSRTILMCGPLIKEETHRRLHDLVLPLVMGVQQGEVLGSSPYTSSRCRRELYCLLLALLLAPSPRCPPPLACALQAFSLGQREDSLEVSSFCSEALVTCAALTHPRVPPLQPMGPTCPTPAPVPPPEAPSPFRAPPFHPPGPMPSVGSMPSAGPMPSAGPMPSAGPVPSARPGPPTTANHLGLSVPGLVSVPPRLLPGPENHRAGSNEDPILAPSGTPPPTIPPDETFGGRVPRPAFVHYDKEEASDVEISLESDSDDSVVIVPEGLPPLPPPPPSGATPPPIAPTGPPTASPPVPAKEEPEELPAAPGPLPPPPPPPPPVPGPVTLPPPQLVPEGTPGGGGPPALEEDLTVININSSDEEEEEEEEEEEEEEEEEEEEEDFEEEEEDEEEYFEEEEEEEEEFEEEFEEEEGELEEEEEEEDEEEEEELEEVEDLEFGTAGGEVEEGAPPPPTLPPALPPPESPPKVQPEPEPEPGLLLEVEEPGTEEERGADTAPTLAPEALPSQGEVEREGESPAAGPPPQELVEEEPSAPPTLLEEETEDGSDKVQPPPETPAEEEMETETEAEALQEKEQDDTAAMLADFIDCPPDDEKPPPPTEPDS
UniProt Q86YB8: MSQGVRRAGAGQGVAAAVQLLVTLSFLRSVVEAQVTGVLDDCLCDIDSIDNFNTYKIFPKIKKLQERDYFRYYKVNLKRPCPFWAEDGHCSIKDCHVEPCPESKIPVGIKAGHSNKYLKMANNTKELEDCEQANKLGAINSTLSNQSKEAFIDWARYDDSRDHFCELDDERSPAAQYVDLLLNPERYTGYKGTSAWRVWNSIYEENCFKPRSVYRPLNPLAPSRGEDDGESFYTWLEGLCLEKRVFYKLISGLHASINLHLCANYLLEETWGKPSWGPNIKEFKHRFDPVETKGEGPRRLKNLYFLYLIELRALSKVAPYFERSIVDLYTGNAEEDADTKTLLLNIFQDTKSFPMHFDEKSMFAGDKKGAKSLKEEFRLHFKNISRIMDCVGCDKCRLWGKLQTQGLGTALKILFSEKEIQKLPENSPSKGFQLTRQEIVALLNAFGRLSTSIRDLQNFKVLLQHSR

25 targets from the supplement of paper PMC6411743 can be followed below.

Compound in this assay: Nc1ncnc2c1ncn2[C@@H]1O[C@H](COP(=O)(O)OP(=O)(O)NP(=O)(O)O)[C@@H](O)[C@H]1O [adenylyl imidodiphosphate]
As to the kind of experiment: NP40-soluble protein abundance relative to vehicle (solubility fold change) (ratio); higher = more soluble protein in presence of AMP-PNP. The procedure, abridged: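 Jurkat crude lysate (Dounce-homogenised) was treated with eight concentrations from 0.1 to 10 mM for 10 min at room temperature, then 3 min at 37 °C. It was solubilised with 0.8% NP40 and benzonase (60 min, 4 °C) and ultracentrifuged, and the supernatant was TMT-labelled for LC-MS/MS. Intensities were vsn-normalised, and the value is the fold change against the NP40-processed vehicle per replicate, from three independent experiments.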

Take NUDCD3 (UniProt Q8IVD9): the NP40-soluble protein abundance worked out at 1.03 ± 0.047 (concentration: 1mM); 1.09 ± 0.02 (concentration: 2mM); 1 ± 0.047 (concentration: 4mM); 0.977 ± 0.058 (concentration: 6mM); 0.94 ± 0.067 (concentration: 8mM); 1.01 ± 0.055 (concentration: 10mM).

Turning to UniProt Q8IXB1 and related entries, the NP40-soluble protein abundance (concentration: 1mM) turned out to be 0.969 ± 0.035; the NP40-soluble protein abundance (concentration: 2mM) amounted to 0.923 ± 0.061; the NP40-soluble protein abundance (concentration: 4mM) was found to be 0.943 ± 0.032; the NP40-soluble protein abundance (concentration: 6mM) was determined as 0.971 ± 0.033; the NP40-soluble protein abundance (concentration: 8mM) amounted to 0.97 ± 0.022; the NP40-soluble protein abundance (concentration: 10mM) is 0.972 ± 0.046.

Regarding UniProt Q86UK7 and related entries, the NP40-soluble protein abundance reads like this: (concentration: 1mM) 1.03 ± 0.043; (concentration: 2mM) 1.03 ± 0.022; (concentration: 4mM) 1.07 ± 0.031; (concentration: 6mM) 1.08 ± 0.038; (concentration: 8mM) 1.1 ± 0.048; (concentration: 10mM) 1.11 ± 0.07.

Regarding SLC15A4 (UniProt Q8N697), the NP40-soluble protein abundance (concentration: 1mM) amounted to 0.975 ± 0.026; the NP40-soluble protein abundance (concentration: 2mM) is 0.971 ± 0.034; the NP40-soluble protein abundance (concentration: 4mM) came to 0.993 ± 0.042; the NP40-soluble protein abundance (concentration: 6mM) worked out at 0.985 ± 0.047; the NP40-soluble protein abundance (concentration: 8mM) was found to be 0.99 ± 0.022; the NP40-soluble protein abundance (concentration: 10mM) is 0.992 ± 0.039.

In the case of INTS1 (UniProt Q8N201), the NP40-soluble protein abundance was found to be 1.01 ± 0.043 (concentration: 1mM); 0.995 ± 0.051 (concentration: 2mM); 1.06 ± 0.037 (concentration: 4mM); 1.05 ± 0.063 (concentration: 6mM); 1.05 ± 0.072 (concentration: 8mM); 1.07 ± 0.086 (concentration: 10mM).

As to UniProt Q8N0V3, the NP40-soluble protein abundance (concentration: 1mM) worked out at 0.9958 ± 0.0084; the NP40-soluble protein abundance (concentration: 2mM) was 1 ± 0.034; the NP40-soluble protein abundance (concentration: 4mM) was 0.976 ± 0.01; the NP40-soluble protein abundance (concentration: 6mM) is 0.993 ± 0.012; the NP40-soluble protein abundance (concentration: 8mM) worked out at 1 ± 0.036; the NP40-soluble protein abundance (concentration: 10mM) amounted to 0.987 ± 0.023.

As to UniProt Q8IYB5-2|Q8IYB5-3, the NP40-soluble protein abundance (concentration: 1mM) is 0.988 ± 0.028; the NP40-soluble protein abundance (concentration: 2mM) was determined as 0.986 ± 0.011; the NP40-soluble protein abundance (concentration: 4mM) came to 1.01 ± 0.031; the NP40-soluble protein abundance (concentration: 6mM) was 0.995 ± 0.038; the NP40-soluble protein abundance (concentration: 8mM) turned out to be 0.995 ± 0.025; the NP40-soluble protein abundance (concentration: 10mM) worked out at 1.01 ± 0.015.

As for C9orf40 (UniProt Q8IXQ3), the NP40-soluble protein abundance reads like this: (concentration: 1mM) 1 ± 0.021; (concentration: 2mM) 1.02 ± 0.028; (concentration: 4mM) 1 ± 0.032; (concentration: 6mM) 0.993 ± 0.033; (concentration: 8mM) 0.966 ± 0.028; (concentration: 10mM) 0.98 ± 0.045.

For UniProt Q8N371, the NP40-soluble protein abundance by setting is: (concentration: 1mM) 1.02 ± 0.059; (concentration: 2mM) 1.01 ± 0.032; (concentration: 4mM) 1.04 ± 0.018; (concentration: 6mM) 1 ± 0.07; (concentration: 8mM) 1.05 ± 0.085; (concentration: 10mM) 1.06 ± 0.036.

Consider PRPF38A (UniProt Q8NAV1), for which the NP40-soluble protein abundance runs as follows: (concentration: 1mM) 1 ± 0.021; (concentration: 2mM) 1.03 ± 0.06; (concentration: 4mM) 1.03 ± 0.034; (concentration: 6mM) 1.02 ± 0.044; (concentration: 8mM) 1.02 ± 0.018; (concentration: 10mM) 1.02 ± 0.043.

Turning to YRDC (UniProt Q86U90), the NP40-soluble protein abundance by setting is: (concentration: 1mM) 0.9988 ± 0.0045; (concentration: 2mM) 0.981 ± 0.018; (concentration: 4mM) 1 ± 0.028; (concentration: 6mM) 1.09 ± 0.075; (concentration: 8mM) 1.08 ± 0.079; (concentration: 10mM) 1.09 ± 0.072.

For UniProt Q7Z7A4 and related entries, the NP40-soluble protein abundance by setting is: (concentration: 1mM) 0.99 ± 0.033; (concentration: 2mM) 0.973 ± 0.029; (concentration: 4mM) 1.02 ± 0.073; (concentration: 6mM) 1.14 ± 0.074; (concentration: 8mM) 1.14 ± 0.064; (concentration: 10mM) 1.15 ± 0.15.

For the target UniProt Q8IY95 and related entries, the NP40-soluble protein abundance reads like this: (concentration: 1mM) 1.01 ± 0.03; (concentration: 2mM) 1.04 ± 0.03; (concentration: 4mM) 0.983 ± 0.046; (concentration: 6mM) 0.9721 ± 0.0046; (concentration: 8mM) 0.959 ± 0.03; (concentration: 10mM) 0.954 ± 0.015.

For UniProt Q86X83 and related entries, the NP40-soluble protein abundance was determined as 1.01 ± 0.038 (concentration: 1mM); 0.928 ± 0.062 (concentration: 2mM); 0.965 ± 0.049 (concentration: 4mM); 0.972 ± 0.027 (concentration: 6mM); 1.01 ± 0.055 (concentration: 8mM); 0.967 ± 0.058 (concentration: 10mM).

With RNF168 (UniProt Q8IYW5), the NP40-soluble protein abundance reads like this: (concentration: 1mM) 1.01 ± 0.015; (concentration: 2mM) 1.04 ± 0.023; (concentration: 4mM) 1.04 ± 0.067; (concentration: 6mM) 0.999 ± 0.036; (concentration: 8mM) 0.989 ± 0.053; (concentration: 10mM) 1.01 ± 0.018.

As for UniProt Q8IVW6 and related entries, the NP40-soluble protein abundance reads like this: (concentration: 1mM) 1.05 ± 0.056; (concentration: 2mM) 1.03 ± 0.013; (concentration: 4mM) 1.06 ± 0.032; (concentration: 6mM) 1.01 ± 0.018; (concentration: 8mM) 1.02 ± 0.037; (concentration: 10mM) 1.01 ± 0.063.

Turning to UBE2Q1 (UniProt Q7Z7E8), the NP40-soluble protein abundance runs as follows: (concentration: 1mM) 1.01 ± 0.013; (concentration: 2mM) 1.06 ± 0.037; (concentration: 4mM) 1.02 ± 0.053; (concentration: 6mM) 0.995 ± 0.017; (concentration: 8mM) 0.982 ± 0.026; (concentration: 10mM) 1.01 ± 0.033.

On to UniProt Q86U38, for which the NP40-soluble protein abundance runs as follows: (concentration: 1mM) 1 ± 0.038; (concentration: 2mM) 0.968 ± 0.034; (concentration: 4mM) 1.07 ± 0.022; (concentration: 6mM) 1.05 ± 0.036; (concentration: 8mM) 1.06 ± 0.02; (concentration: 10mM) 1.04 ± 0.045.

In the case of UniProt Q8IUF8 and related entries, the NP40-soluble protein abundance runs as follows: (concentration: 1mM) 1.05 ± 0.026; (concentration: 2mM) 1.04 ± 0.028; (concentration: 4mM) 1.09 ± 0.019; (concentration: 6mM) 1.08 ± 0.038; (concentration: 8mM) 1.1 ± 0.033; (concentration: 10mM) 1.08 ± 0.028.

With GLRX5 (UniProt Q86SX6), the NP40-soluble protein abundance reads like this: (concentration: 1mM) 1.02 ± 0.047; (concentration: 2mM) 1.1 ± 0.11; (concentration: 4mM) 1.004 ± 0.0095; (concentration: 6mM) 0.996 ± 0.029; (concentration: 8mM) 0.948 ± 0.019; (concentration: 10mM) 0.953 ± 0.018.

On to SUPV3L1 (UniProt Q8IYB8), for which the NP40-soluble protein abundance (concentration: 1mM) was determined as 1.02 ± 0.012; the NP40-soluble protein abundance (concentration: 2mM) was determined as 0.932 ± 0.076; the NP40-soluble protein abundance (concentration: 4mM) was 1.02 ± 0.018; the NP40-soluble protein abundance (concentration: 6mM) was found to be 0.973 ± 0.013; the NP40-soluble protein abundance (concentration: 8mM) amounted to 1.01 ± 0.036; the NP40-soluble protein abundance (concentration: 10mM) turned out to be 0.95 ± 0.038.

Turning to Q8IWY7 (UniProt Q6IQ55), the NP40-soluble protein abundance by setting is: (concentration: 1mM) 1 ± 0.028; (concentration: 2mM) 0.973 ± 0.033; (concentration: 4mM) 1.01 ± 0.041; (concentration: 6mM) 1.01 ± 0.017; (concentration: 8mM) 0.966 ± 0.038; (concentration: 10mM) 0.97 ± 0.019.

As to PELP1 (UniProt Q8IZL8), the NP40-soluble protein abundance is 1.01 ± 0.028 (concentration: 1mM); 1.024 ± 0.0074 (concentration: 2mM); 1.01 ± 0.026 (concentration: 4mM); 1 ± 0.03 (concentration: 6mM); 1.032 ± 0.0039 (concentration: 8mM); 1.03 ± 0.015 (concentration: 10mM).

As for UniProt Q8N4N3 and related entries, the NP40-soluble protein abundance (concentration: 1mM) was 1 ± 0.013; the NP40-soluble protein abundance (concentration: 2mM) amounted to 0.996 ± 0.019; the NP40-soluble protein abundance (concentration: 4mM) was found to be 0.981 ± 0.027; the NP40-soluble protein abundance (concentration: 6mM) turned out to be 0.96 ± 0.019; the NP40-soluble protein abundance (concentration: 8mM) was 0.981 ± 0.027; the NP40-soluble protein abundance (concentration: 10mM) was 0.959 ± 0.017.

In the case of UniProt Q86YB8, the NP40-soluble protein abundance is, setting by setting: (concentration: 1mM) 1 ± 0.015; (concentration: 2mM) 1.01 ± 0.014; (concentration: 4mM) 0.9989 ± 0.0091; (concentration: 6mM) 0.997 ± 0.012; (concentration: 8mM) 0.994 ± 0.019; (concentration: 10mM) 1 ± 0.022.
